Experiment: Dynamic headspace analysis of air-dried hair swatches treated with leave-on hair conditioner
Conditions: ± std. dev.; for Dynamic headspace concentration of the perfumery raw material, reference: free ketone equimolar in leave-on hair conditioner; for Dynamic headspace concentration of 2-pentylcyclopentanone, profragrance: leave-on hair conditioner, 35° C.

| Structure (SMILES) | Dynamic headspace concentration of the perfumery raw material, reference (60-90 min sample) | Dynamic headspace concentration of the perfumery raw material, reference (120-150 min sample) | Dynamic headspace concentration of 2-pentylcyclopentanone, profragrance (60-90 min sample) | Dynamic headspace concentration of 2-pentylcyclopentanone, profragrance (120-150 min sample) |
| --- | --- | --- | --- | --- |
| CCCCCC1CCCC1=O (stereo not shown) [2-pentylcyclopentanone, reference compound] | 34 ± 18 ng/L | 48.4 ± 23 ng/L |  |  |
| CCCCCC1CCCC1=COC(C)C(=O)OC (racemic) [Compound 18, (±)-methyl 2-((2-pentylcyclopentylidene)methoxy)propanoate] |  |  | 121 ± 12 ng/L | 108 ± 11 ng/L |
